Data from patent US20090298103A1, “Predicting hemostatic risk; dependence on plasma composition” (The University of Vermont and State Agriculture College, priority 2008, published 2009).
At least one compound was matched to its structure with a doubt left.

Experiments:
Type in all cases: biochemical, human
[1] = system: Tf-initiated thrombin formation; test: Synthetic coagulation proteome, Tf-initiated thrombin generation (prophylactic anticoagulation); conditions: 1 μM Fpx
Description: Materials—Human coagulation fVII, fX, fIX, and prothrombin (fII), were isolated from fresh frozen plasma using the methods of Bajaj et al., and were purged of traces of active enzymes. FXI was purified using the monoclonal anti-fXI antibody α-fXI-2. Human fV and AT were isolated from freshly frozen plasma. The following were provided as gifts: recombinant fVIII and recombinant Tf (residues 1-242); recombinant human fVIIa; and recombinant full-length tissue factor pathway inhibitor (TFPI). Corn trypsin inhibitor (CTI) was isolated from popcorn. The preparation of the Tf/lipid reagent was performed. 1,2-Dioleolyl-sn-Glycero-3-Phospho-L-Serine (PS) and 1,2-Dioleoyl-sn-Glycero-3-Phosphocholine (PC) were purchased from Avanti Polar Lipids, Inc (Alabaster, Ala.), and EDTA was purchased from Sigma (St Louis, Mo.). Phospholipid vesicles (PCPS) composed of 75% PC and 25% PS and were prepared. […]
(§1) Thrombin generation over time was measured in a chromogenic assay using Spectrozyme TH and a THERMOmax microplate reader (Molecular Devices Corp., Menlo Park, Calif.). In experiments assessing the reversible thrombin inhibitor DAPA, rates of thrombin generation were calculated by reference to a standard curve relating thrombin concentration to rates of substrate hydrolysis in the presence of relevant DAPA concentrations. […]

[2] = system: thrombin formation after resupply; test: Synthetic coagulation proteome, resupply response (therapeutic anticoagulation); conditions: 5 μM Fpx
Procedure: Synthetic Coagulation Model—The procedure used is a modification of Lawson et al. [Lawson, J. H., Kalafatis, M., Stram, S., and Mann, K. G. (1994) J. Biol. Chem. 269, 23357-23366] and van't Veer et al. [van't Veer, C. and Mann, K. G. (1997) J. Biol. Chem. 272, 4367-4377]. Relipidated Tf at 5 pM final concentration was added to a mixture of fII, fV, fVII, fVIIIa, fVIII, fIX, fX, fXI, TFPI, and AT (all at mean physiologic concentrations) (43) in 20 mM HEPES/150 mM NaCl (HBS) with 2 mM CaCl2 containing 2 μM PCPS. Pharmacologic agents were incorporated into the reaction mixture prior to addition of the Tf reagent. Resupply was conducted at 20 min post Tf initiation by the addition of an equal volume of a freshly constituted, Tf free mixture containing procofactors, zymogens and inhibitors in HBS with 2 mM CaCl2 and 2 μM PCPS to an ongoing reaction. Pharmacologic agents were present in the resupply mixture at twice their final concentration.
as §1

[3] = system: contact pathway inhibited blood; test: Contact pathway inhibited whole blood, Tf-initiated TAT formation; conditions: increasing concentrations incorporated into blood prior to Tf (5 pM)
Description: (§2) Whole Blood Model—The protocol used is a modification of Rand et al. [Orfeo, T., Butenas, S., Brummel-Ziedins, K. E., and Mann, K. G. (2005) J. Biol. Chem. 280, 42887-42896; Rand, M. D., Lock, J. B., van't Veer, C., Gaffney, D. P., and Mann, K. G. (1996) Blood 88, 3432-3445]. A healthy donor was recruited, advised according to a protocol approved by the University of Vermont Human Studies Committee and their consent was obtained. […] Blood was drawn by venipuncture and immediately delivered into the reagent-loaded tubes. In general, 2 sets of aliquots of CTI treated blood were initiated with […] Tf reagent. One set was quenched at 1 min intervals while the other was incubated for 20 min. […] This resupply blood contained CTI alone (0.1 mg/ml), CTI+2 uM fondaparinux or CTI+320 nM C921-78. After the experiment, the tubes are centrifuged and the supernatants are aliquoted and analyzed for TAT levels. A subset of tubes containing either Fpx or C921-78 were initiated with 5 pM Tf reagent, quenched at 20 min and analyzed for TAT levels.
(§3) Anticoagulant Efficacy in Whole Blood—To test whether results from the computational and proteome based analyses would extrapolate to a more complex empirical model, the efficacy of anticoagulants in suppressing thrombin generation was addressed in contact pathway inhibited blood in both Tf-initiated and resupply regimens. […]

[4] = system: contact pathway inhibited blood; test: Contact pathway inhibited whole blood, resupply
Description: as §2, §3

CO[C@H]1O[C@H](COS(=O)(=O)O)[C@@H](O[C@@H]2O[C@@H](C(=O)O)[C@@H](O[C@H]3O[C@H](COS(=O)(=O)O)[C@@H](O[C@@H]4O[C@H](C(=O)O)[C@@H](O[C@H]5O[C@H](COS(=O)(=O)O)[C@@H](O)[C@H](O)[C@H]5NS(=O)(=O)O)[C@H](O)[C@H]4O)[C@H](OS(=O)(=O)O)[C@H]3NS(=O)(=O)O)[C@H](O)[C@H]2OS(=O)(=O)O)[C@H](O)[C@H]1NS(=O)(=O)O [Fpx, fondaparinux]
onset of thrombin generation [1]: 17 min
thrombin concentration at 20 min [1]: ~20 nM
thrombin at 1 min as share of the maximum level observed in the absence of anticoagulants [2]: 35%
thrombin levels at 1 min [2]: ~70 nM
TAT levels at 20 min [3]: decreases in the TAT levels
suppressing thrombin generation in the resupply format ([4]; 1 μM Fpx compared to 160 nM C921-78): relatively ineffective
thrombin generation relative to that in the absence of anticoagulant ([4]; 1 μM Fpx final): approximately 40%
